Among the data in PMC11288737 are binding values, retold here.

Protein sequences, listed by entry. Tags and fused reporters are not part of them. Lines headed by an entry give the natural chain unless they say otherwise; changes in a name come on top.
UniProt I1JZC3: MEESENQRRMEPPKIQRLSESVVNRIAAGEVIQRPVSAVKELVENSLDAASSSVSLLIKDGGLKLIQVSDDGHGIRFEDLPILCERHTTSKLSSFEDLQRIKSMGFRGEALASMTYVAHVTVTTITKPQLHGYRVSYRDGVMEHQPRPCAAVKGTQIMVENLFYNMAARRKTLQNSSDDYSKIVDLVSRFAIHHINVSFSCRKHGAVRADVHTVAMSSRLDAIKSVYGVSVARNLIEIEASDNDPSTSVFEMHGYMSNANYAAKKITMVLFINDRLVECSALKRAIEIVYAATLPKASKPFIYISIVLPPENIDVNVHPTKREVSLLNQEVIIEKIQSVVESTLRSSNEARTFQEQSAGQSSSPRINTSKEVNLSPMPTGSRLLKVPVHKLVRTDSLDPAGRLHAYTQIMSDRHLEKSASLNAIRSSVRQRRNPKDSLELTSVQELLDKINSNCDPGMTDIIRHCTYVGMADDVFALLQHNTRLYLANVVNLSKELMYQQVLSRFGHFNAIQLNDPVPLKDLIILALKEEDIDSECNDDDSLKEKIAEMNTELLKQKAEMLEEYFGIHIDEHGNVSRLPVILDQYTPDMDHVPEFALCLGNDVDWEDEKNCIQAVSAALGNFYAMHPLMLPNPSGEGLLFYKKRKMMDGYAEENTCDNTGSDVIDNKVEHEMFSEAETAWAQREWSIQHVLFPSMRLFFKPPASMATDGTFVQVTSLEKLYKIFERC
UniProt A0A0R0HRB2: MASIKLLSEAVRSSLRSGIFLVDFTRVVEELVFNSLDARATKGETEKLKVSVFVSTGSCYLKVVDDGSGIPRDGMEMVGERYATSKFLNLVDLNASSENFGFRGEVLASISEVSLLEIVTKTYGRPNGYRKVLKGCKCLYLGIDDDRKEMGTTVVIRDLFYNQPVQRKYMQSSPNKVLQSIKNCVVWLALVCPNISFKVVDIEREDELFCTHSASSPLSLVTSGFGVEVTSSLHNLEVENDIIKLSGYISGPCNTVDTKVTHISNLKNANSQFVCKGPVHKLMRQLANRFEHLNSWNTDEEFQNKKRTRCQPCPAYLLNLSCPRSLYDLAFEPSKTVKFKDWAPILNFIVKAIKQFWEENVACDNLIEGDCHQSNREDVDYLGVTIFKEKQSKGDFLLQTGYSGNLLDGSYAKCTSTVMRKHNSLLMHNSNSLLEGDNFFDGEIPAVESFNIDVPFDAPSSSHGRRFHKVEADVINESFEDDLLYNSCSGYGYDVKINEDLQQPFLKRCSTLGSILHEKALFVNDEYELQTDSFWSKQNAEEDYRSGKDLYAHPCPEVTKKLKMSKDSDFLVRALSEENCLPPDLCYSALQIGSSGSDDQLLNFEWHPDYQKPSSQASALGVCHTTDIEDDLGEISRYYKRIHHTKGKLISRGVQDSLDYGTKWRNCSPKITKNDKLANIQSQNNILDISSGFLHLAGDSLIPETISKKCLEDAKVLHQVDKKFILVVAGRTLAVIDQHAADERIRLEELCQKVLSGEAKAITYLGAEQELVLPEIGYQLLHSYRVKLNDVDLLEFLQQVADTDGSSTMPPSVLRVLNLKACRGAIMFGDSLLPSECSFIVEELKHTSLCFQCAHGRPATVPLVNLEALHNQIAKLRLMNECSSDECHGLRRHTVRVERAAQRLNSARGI

In this assay the target is GST-GmMLH1 (soybean (Glycine max)) (UniProt I1JZC3). Put plainly: pull-down; 2 µg of GST- or His-tagged proteins mixed in 400 µL binding buffer at 4 °C for 4 h, then GST resin at 4 °C for 2 h; eluted proteins detected with anti-GST or anti-His; both purified.

No constants are given. Whether binding was seen depends on the method and setting. A result given as binding can be weak or reduced; the word gives no strength.

His-GmMLH3B (from UniProt A0A0R0HRB2): the binding result is “binds”.
